The target of test [1] is T1, IRAG2 (mouse (endogenous in platelets)) (UniProt Q60664).
T1 sequence: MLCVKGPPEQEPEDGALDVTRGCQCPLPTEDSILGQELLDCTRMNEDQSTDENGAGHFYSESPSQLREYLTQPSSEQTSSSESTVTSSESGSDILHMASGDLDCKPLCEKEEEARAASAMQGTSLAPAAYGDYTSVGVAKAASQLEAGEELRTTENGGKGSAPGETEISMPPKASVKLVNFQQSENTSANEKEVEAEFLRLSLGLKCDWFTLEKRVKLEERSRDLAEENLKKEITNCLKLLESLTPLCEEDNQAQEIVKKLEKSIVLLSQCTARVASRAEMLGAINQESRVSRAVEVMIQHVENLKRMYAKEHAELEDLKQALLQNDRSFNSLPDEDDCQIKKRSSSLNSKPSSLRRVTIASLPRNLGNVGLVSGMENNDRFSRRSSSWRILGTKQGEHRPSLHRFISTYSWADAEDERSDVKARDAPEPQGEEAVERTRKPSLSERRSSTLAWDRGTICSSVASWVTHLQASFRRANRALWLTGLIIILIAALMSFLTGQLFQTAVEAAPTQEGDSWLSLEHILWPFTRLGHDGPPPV
As to the kind of experiment: co-IP; murine platelets; co-immunoprecipitation with anti-IRAG2 antibody, SDS-PAGE and Western blot.

Chains of the proteins cited; added tags and fusions are not shown. Residues count along the entry.
UniProt P48679, residues 1-647: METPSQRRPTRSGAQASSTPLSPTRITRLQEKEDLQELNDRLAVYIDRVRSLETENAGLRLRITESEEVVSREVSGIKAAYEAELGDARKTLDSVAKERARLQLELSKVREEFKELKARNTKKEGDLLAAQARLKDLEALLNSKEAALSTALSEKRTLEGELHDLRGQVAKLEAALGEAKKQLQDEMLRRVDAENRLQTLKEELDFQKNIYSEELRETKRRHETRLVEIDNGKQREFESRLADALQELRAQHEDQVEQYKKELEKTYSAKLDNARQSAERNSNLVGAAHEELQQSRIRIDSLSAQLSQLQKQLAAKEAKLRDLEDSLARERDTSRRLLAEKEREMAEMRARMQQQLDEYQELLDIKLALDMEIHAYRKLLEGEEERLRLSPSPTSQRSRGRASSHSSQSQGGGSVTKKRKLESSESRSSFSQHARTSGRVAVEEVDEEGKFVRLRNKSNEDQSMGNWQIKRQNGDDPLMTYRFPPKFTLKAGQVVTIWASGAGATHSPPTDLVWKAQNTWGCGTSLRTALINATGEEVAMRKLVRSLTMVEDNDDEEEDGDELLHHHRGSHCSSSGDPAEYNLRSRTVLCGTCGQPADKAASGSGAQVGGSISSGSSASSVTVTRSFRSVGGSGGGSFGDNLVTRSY
UniProt P16066, residues 33-1061: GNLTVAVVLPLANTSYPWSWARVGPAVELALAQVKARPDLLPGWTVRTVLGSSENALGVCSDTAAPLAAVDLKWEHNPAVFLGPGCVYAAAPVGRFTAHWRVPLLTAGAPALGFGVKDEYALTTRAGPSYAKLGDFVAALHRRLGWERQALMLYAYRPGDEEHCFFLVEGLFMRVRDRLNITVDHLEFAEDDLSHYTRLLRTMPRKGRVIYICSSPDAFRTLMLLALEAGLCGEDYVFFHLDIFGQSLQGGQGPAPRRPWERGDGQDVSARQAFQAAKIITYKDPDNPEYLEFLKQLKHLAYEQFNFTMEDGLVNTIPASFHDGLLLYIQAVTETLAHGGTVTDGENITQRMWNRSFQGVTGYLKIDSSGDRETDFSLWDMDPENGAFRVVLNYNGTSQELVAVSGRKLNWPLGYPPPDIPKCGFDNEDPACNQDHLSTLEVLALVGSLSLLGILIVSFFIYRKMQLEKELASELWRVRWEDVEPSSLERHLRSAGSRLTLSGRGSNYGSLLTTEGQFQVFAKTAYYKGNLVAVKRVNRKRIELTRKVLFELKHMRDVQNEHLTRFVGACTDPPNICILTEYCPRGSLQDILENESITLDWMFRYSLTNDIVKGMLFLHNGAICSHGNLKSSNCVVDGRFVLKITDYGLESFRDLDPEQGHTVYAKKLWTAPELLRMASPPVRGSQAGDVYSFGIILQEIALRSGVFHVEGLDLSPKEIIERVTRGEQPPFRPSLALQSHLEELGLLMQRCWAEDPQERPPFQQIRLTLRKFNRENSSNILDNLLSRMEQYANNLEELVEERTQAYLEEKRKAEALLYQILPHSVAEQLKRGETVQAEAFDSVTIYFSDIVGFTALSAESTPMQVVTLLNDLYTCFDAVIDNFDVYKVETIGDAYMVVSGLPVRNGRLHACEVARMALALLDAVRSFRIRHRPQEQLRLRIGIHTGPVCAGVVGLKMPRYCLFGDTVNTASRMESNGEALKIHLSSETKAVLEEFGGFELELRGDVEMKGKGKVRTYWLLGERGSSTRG
UniProt P20594, residues 23-1047: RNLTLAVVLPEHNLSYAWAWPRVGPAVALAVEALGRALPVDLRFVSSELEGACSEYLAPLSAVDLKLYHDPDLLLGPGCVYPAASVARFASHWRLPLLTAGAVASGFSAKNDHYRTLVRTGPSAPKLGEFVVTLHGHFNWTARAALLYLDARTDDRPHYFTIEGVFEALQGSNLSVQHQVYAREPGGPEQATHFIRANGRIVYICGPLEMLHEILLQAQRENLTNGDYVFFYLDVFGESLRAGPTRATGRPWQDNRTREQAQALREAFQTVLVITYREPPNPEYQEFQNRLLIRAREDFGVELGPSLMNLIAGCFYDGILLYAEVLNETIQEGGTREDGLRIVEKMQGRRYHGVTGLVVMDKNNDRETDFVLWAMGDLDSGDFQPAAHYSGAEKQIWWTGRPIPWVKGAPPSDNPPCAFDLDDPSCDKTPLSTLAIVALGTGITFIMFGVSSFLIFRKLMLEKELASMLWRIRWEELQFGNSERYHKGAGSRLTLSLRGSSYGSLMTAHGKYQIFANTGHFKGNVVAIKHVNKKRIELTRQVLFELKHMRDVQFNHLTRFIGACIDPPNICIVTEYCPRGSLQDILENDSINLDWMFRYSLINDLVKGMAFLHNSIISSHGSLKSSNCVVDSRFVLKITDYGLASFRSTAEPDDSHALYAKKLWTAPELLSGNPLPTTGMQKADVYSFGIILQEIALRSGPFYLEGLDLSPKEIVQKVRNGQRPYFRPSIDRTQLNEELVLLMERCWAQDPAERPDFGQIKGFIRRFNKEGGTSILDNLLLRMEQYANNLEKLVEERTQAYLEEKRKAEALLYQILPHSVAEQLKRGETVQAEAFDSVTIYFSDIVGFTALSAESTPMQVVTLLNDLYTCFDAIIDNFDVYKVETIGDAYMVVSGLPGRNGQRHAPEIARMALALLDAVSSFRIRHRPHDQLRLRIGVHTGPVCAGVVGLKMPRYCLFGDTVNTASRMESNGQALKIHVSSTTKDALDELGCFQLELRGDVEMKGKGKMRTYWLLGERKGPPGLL
UniProt P31000: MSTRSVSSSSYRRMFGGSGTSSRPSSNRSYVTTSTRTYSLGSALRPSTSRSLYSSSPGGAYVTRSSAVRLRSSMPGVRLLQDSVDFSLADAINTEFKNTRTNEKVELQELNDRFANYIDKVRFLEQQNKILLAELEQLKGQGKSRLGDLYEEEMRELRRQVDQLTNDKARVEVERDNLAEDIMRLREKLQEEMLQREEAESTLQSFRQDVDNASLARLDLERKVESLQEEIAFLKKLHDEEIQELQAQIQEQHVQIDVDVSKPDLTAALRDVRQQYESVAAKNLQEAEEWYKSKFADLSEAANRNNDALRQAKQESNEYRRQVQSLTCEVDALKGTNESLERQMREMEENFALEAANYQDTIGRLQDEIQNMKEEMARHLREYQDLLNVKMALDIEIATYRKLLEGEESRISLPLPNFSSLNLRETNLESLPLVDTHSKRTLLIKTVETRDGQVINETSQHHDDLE
UniProt P11881: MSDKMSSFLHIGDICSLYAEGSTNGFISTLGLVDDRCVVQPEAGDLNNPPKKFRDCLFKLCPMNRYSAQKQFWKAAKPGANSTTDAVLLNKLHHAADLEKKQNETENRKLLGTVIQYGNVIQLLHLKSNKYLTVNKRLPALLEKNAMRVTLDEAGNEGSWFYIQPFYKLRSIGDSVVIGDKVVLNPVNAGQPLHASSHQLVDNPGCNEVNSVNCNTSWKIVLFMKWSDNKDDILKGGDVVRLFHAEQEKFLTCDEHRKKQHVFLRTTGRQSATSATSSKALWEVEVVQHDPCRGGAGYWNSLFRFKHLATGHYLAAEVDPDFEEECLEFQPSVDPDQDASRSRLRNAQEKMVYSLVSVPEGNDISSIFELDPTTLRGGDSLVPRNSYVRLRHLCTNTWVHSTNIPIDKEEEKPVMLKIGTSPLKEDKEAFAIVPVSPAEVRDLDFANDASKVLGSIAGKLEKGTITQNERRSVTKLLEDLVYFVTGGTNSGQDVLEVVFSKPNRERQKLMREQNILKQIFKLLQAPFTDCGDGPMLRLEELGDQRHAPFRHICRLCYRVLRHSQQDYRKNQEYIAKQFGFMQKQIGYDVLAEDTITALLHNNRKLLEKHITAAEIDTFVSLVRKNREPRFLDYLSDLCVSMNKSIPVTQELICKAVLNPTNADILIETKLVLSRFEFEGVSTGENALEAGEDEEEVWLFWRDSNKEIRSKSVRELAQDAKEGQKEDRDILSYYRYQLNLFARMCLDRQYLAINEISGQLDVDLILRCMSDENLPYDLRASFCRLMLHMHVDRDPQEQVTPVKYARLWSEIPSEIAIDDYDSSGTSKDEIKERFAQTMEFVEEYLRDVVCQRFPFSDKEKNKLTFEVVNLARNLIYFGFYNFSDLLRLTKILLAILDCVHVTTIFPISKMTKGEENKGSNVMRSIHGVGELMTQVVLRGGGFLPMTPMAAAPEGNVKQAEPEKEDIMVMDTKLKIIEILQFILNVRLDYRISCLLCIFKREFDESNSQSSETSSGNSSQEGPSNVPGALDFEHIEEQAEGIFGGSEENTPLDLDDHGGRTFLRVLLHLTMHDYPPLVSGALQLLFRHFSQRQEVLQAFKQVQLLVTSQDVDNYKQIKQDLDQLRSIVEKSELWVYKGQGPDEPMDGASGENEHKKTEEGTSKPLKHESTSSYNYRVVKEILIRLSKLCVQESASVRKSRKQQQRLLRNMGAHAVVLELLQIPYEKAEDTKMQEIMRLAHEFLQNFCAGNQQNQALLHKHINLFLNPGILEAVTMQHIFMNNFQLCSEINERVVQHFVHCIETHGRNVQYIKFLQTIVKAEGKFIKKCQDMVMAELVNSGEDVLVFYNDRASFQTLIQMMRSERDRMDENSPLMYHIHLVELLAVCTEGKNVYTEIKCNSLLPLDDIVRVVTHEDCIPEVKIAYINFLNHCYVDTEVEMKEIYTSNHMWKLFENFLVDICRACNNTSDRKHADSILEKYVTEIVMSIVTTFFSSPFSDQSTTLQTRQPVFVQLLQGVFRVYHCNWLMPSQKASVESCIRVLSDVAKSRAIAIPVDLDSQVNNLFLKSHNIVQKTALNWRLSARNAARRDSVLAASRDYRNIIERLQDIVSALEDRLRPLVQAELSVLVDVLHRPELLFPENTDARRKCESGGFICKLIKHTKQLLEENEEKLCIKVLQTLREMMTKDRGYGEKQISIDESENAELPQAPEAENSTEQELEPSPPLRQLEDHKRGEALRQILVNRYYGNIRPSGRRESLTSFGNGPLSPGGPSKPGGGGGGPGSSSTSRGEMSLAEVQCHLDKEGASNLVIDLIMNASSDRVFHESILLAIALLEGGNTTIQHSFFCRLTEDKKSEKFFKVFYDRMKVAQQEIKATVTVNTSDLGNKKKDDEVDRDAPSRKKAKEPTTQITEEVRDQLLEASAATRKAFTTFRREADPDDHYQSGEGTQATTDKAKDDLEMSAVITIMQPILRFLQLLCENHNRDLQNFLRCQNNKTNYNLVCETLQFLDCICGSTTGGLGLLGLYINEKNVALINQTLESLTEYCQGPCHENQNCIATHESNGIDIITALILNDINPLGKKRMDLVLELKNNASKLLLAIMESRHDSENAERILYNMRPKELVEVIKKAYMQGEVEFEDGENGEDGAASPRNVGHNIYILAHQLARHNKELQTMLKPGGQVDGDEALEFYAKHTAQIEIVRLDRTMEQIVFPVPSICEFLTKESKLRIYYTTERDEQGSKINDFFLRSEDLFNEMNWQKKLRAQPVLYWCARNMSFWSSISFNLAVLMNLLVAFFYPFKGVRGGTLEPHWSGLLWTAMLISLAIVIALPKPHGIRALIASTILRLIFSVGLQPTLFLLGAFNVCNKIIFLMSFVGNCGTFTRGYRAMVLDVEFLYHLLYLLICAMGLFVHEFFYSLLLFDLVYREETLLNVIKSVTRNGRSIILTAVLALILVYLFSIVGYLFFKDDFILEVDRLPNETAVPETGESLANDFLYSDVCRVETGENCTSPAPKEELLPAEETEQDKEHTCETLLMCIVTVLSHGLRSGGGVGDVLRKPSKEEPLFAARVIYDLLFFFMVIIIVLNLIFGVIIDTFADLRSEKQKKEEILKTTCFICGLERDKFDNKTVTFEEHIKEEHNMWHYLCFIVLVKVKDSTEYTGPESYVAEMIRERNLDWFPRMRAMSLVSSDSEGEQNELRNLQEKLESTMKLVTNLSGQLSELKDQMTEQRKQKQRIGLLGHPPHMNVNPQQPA
UniProt Q9UIA0: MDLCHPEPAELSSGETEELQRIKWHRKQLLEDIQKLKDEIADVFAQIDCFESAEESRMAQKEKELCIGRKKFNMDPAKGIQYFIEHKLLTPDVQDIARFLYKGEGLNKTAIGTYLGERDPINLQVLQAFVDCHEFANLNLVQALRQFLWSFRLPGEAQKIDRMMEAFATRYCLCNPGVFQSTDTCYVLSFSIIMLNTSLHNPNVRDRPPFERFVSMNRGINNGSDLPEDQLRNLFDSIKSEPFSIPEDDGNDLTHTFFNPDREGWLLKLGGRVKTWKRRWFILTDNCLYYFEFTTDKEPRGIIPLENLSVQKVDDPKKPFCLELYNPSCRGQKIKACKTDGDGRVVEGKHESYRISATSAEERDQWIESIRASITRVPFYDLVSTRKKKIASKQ

In test [2] the target is Lamin A/C (rat (endogenous in RAOSMC)) (UniProt P48679). As to the kind of experiment: disome-selective profiling (DiSP); RAOSMC; monosomes and nascent-chain-coupled disomes separated by sucrose gradient after RNase digestion, footprints sequenced; co-co assembly of nascent chains.
Test [3] concerns the target NP receptor NPR-A (UniProt P16066). As to the kind of experiment: co-IP; transfected HEK293 cells.
In test [4] the target is NP receptor NPR-B (UniProt P20594). As to the kind of experiment: co-IP; transfected HEK293 cells.
Test [5] concerns the target Vimentin (rat (endogenous in RAOSMC)) (UniProt P31000). Kind of test: disome-selective profiling (DiSP); RAOSMC; monosomes and nascent-chain-coupled disomes separated by sucrose gradient after RNase digestion, footprints sequenced; co-co assembly of nascent chains.

These are yes or no findings as the source states them, for the method shown. For some of these results: In cells and extracts the contact can be indirect. Some entries that bind do so weakly or less than the wild type.

For “IP3R3 (from UniProt P70227 1-2670) (receptor)”, the binding entry in test [1] was “binds”.

Take “IP3R1 (from UniProt P11881 1-2749) (receptor)”: the binding result in test [1] was “binds”.

Lamin A/C (from UniProt P48679 1-647): in test [2], the binding result is on record as “binds”.

Take cytohesin-2 (from UniProt Q99418 1-400): the binding entry in test [3] and in test [4] was “binds” throughout.

Consider Vimentin (from UniProt P31000 1-466), for which the binding entry in test [5] is reported as “binds”.

Turning to cytohesin-4 (from UniProt Q9UIA0 1-394), the binding entry in test [3] and in test [4] was “binds” throughout.

Turning to “IP3R2 (from UniProt Q9Z329 1-2701) (receptor)”, the binding entry in test [1] is “binds”.

B1: IRAG1 (protein, UniProt Q9WUX5 1-899)
chain: MGRSLTCPFGISPACGAQASWSIFGVGTAEVPGTHSHSNQAAAMPHIPEDEEPPGEPQAAQTQDSPSAGPFPSPPTIVLTGDASSPEGETDKNLVNRAPSPHRRLSHRHLKVSTASLTSVDPSGHVIDLVNDQLPDISISEEDKKKNLALLEEAKLVSERFLTRRGRKSRSSLGDSPSAVSPNLSSGASPASSRSCSLTISTSPGLDICSGPQSPLPGAPPQQKGHEDGVSSPCPGEPNVSKGLADLKQNDQRKVSQGRLAPRSPTVEKTKELTVEQKENFDPLQHVEATPMAQASGASISGKMALNSPQPGPAEMELGRQLLKTAREGNPLPRTTAQGSGGTVSPHSLGQGSAGEPMGPKAGSKAELRSPVSRPPLIRGVSWDSSPEEPGPLLQKVLAKLPLAEEEKRFPGKAKPAKPPGLKDFQIQVQPVRMQKLTKLREEHILMRNQNLVGFKLPELSEAAEQDKGVSPELAPAAEEEESKSGLDVMPNISDILLRKLRVHKSLTGSAPPLTEKEVENVFVQLSLAFRNDSYTLESRINQAERERNLTEENTEKELENFKASITSSANIWYHCEHRETYQKLLEDIAVLHRLAARLSSRAEVVGAVRQEKRMSKATEVMMQYVENLKRTYEKDHAELMEFKKLANQNSSRSCGPSEDGVPRTARSMSLTMGKNMPRRRVSVAVVPKFNALNLPGQAPSSSPMPSLPALSESSNGKSSISVSPALPALLENGKTNAEANCEVGAPVPLPSCLEETSQETKAKAEEEAYSKGYQEGVKKTEELQDLKEEEEEEQKTESPEEPEEVEETQEDEKDQGSSKLEELVHFLQVMYPKLCQHWQVIWMMAAVMLVLSVVLGLYSSYNSCTEEADGPPGRSTCSAAQRDSWWSSGLQQELPAEQ
With B1, in test [1], the binding result is given as “no binding”.

The values are drawn from publication PMC9887734, “Meeting abstracts from the 10th International Conference on cGMP: Generators, Effectors and Therapeutic Implications” (Journal of Translational Medicine, 2023).
